Measurements published in the supplement of paper PMC10849652.
This is one part of the list. Residues, ends and D or L forms follow the SMILES beside them. *: point of attachment. Cbz = O=C(OCc1ccccc1)*

Protein sequences, listed by entry. Tags and fused reporters are not part of them. Lines headed by an entry give the natural chain unless they say otherwise; changes in a name come on top.
UniProt O14967: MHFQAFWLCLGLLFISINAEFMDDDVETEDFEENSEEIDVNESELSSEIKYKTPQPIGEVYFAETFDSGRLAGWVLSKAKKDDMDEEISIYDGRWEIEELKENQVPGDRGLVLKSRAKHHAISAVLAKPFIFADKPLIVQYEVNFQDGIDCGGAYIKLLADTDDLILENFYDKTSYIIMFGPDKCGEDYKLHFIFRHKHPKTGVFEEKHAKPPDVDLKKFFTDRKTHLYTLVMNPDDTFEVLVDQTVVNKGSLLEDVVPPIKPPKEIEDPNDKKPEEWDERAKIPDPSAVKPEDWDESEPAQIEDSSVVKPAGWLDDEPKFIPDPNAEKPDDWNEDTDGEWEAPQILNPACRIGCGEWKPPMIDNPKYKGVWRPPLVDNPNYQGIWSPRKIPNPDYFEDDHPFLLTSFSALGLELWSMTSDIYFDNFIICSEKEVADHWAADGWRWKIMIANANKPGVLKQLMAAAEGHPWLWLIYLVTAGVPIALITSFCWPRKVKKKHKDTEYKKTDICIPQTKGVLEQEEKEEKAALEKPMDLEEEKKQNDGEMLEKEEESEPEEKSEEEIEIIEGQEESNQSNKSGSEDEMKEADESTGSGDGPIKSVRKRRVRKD
UniProt Q16740, whole entry, looked up: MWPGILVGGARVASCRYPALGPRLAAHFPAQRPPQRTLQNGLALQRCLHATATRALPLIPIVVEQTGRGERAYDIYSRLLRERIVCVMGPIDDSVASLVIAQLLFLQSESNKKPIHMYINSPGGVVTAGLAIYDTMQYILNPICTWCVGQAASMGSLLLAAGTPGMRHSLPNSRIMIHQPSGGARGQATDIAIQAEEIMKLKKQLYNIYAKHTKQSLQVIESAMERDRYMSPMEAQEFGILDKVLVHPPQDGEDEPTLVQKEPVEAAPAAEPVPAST
UniProt O75122: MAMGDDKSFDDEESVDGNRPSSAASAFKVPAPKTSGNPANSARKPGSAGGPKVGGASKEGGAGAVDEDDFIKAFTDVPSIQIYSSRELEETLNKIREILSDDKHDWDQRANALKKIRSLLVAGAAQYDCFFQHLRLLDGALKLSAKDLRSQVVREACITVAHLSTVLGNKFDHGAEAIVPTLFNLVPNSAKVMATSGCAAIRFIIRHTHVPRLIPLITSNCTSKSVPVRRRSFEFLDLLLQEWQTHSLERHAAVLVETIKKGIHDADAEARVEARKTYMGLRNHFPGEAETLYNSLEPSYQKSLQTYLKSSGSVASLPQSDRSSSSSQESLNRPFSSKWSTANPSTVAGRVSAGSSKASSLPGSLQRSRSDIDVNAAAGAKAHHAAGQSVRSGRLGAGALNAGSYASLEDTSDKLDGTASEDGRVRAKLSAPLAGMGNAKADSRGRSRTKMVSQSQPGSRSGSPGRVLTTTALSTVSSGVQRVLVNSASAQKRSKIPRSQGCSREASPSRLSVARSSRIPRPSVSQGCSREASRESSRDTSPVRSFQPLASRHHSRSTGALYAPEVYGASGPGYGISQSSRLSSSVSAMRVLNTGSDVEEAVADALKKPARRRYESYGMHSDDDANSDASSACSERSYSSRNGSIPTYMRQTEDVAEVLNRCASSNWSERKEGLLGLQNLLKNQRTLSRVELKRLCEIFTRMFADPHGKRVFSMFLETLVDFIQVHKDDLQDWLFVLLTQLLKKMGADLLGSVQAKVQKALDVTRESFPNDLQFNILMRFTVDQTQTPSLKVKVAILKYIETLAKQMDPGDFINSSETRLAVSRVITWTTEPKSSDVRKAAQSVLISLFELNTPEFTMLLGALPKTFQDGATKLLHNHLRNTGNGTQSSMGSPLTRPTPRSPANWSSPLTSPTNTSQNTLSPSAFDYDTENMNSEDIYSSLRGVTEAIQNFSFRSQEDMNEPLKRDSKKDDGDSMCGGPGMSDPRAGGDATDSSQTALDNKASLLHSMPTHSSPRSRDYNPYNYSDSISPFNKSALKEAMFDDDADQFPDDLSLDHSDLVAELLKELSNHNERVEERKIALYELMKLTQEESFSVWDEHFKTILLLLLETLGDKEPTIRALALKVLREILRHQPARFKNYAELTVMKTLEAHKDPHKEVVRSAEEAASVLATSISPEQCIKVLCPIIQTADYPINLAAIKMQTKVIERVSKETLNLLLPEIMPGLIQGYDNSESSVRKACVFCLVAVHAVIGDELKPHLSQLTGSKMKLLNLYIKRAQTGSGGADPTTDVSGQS
UniProt O76031, whole entry, looked up: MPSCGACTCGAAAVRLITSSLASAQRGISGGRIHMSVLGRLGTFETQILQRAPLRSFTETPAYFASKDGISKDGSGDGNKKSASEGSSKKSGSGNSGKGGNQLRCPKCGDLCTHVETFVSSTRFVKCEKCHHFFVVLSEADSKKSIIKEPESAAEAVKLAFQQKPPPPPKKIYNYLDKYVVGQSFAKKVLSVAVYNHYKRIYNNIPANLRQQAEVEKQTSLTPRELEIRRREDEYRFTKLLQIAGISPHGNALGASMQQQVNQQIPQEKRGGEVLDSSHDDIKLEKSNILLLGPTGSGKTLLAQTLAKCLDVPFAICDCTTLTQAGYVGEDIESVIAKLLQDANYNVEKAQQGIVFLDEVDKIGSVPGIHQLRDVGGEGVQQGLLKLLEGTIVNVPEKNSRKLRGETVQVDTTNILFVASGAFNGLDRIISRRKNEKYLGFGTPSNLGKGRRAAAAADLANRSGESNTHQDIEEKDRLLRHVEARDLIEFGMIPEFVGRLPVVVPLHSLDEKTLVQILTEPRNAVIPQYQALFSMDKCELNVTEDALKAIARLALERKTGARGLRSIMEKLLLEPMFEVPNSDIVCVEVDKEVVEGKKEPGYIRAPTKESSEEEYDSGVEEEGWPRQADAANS
UniProt O96005: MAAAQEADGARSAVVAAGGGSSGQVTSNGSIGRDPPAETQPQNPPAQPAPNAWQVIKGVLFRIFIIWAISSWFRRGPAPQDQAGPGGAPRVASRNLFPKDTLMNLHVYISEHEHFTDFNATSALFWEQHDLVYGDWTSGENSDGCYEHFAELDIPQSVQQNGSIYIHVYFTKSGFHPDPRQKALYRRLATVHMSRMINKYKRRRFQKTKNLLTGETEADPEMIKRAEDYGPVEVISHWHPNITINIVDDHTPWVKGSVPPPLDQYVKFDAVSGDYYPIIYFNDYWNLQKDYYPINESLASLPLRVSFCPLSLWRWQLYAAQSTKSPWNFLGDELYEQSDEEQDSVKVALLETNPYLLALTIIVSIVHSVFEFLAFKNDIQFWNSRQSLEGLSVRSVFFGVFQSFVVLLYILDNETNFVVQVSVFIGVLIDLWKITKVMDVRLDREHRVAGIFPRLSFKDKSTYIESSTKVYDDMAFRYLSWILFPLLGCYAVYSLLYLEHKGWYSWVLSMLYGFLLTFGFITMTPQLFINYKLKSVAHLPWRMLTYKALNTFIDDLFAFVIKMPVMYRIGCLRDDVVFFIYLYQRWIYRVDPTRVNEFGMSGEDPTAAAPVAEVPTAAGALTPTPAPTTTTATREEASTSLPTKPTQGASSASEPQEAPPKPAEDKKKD
UniProt Q9H078: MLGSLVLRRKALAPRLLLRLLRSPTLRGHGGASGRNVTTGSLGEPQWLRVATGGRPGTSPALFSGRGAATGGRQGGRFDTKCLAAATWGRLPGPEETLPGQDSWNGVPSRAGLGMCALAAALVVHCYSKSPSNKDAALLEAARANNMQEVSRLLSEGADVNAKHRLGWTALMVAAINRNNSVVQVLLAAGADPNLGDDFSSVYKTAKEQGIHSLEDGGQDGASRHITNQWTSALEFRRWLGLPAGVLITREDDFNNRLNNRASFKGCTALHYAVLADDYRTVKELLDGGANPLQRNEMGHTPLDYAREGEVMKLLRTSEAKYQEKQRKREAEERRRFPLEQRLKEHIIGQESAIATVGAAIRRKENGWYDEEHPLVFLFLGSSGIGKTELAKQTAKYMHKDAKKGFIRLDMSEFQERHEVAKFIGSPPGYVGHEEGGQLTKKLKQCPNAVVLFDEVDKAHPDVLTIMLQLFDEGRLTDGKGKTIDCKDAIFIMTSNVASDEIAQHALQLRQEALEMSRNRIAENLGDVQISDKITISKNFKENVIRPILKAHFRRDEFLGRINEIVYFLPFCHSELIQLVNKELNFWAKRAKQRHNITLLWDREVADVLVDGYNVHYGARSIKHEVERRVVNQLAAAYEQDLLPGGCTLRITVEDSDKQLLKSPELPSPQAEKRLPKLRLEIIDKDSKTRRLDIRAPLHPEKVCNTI
UniProt A5YKK6, whole entry, looked up: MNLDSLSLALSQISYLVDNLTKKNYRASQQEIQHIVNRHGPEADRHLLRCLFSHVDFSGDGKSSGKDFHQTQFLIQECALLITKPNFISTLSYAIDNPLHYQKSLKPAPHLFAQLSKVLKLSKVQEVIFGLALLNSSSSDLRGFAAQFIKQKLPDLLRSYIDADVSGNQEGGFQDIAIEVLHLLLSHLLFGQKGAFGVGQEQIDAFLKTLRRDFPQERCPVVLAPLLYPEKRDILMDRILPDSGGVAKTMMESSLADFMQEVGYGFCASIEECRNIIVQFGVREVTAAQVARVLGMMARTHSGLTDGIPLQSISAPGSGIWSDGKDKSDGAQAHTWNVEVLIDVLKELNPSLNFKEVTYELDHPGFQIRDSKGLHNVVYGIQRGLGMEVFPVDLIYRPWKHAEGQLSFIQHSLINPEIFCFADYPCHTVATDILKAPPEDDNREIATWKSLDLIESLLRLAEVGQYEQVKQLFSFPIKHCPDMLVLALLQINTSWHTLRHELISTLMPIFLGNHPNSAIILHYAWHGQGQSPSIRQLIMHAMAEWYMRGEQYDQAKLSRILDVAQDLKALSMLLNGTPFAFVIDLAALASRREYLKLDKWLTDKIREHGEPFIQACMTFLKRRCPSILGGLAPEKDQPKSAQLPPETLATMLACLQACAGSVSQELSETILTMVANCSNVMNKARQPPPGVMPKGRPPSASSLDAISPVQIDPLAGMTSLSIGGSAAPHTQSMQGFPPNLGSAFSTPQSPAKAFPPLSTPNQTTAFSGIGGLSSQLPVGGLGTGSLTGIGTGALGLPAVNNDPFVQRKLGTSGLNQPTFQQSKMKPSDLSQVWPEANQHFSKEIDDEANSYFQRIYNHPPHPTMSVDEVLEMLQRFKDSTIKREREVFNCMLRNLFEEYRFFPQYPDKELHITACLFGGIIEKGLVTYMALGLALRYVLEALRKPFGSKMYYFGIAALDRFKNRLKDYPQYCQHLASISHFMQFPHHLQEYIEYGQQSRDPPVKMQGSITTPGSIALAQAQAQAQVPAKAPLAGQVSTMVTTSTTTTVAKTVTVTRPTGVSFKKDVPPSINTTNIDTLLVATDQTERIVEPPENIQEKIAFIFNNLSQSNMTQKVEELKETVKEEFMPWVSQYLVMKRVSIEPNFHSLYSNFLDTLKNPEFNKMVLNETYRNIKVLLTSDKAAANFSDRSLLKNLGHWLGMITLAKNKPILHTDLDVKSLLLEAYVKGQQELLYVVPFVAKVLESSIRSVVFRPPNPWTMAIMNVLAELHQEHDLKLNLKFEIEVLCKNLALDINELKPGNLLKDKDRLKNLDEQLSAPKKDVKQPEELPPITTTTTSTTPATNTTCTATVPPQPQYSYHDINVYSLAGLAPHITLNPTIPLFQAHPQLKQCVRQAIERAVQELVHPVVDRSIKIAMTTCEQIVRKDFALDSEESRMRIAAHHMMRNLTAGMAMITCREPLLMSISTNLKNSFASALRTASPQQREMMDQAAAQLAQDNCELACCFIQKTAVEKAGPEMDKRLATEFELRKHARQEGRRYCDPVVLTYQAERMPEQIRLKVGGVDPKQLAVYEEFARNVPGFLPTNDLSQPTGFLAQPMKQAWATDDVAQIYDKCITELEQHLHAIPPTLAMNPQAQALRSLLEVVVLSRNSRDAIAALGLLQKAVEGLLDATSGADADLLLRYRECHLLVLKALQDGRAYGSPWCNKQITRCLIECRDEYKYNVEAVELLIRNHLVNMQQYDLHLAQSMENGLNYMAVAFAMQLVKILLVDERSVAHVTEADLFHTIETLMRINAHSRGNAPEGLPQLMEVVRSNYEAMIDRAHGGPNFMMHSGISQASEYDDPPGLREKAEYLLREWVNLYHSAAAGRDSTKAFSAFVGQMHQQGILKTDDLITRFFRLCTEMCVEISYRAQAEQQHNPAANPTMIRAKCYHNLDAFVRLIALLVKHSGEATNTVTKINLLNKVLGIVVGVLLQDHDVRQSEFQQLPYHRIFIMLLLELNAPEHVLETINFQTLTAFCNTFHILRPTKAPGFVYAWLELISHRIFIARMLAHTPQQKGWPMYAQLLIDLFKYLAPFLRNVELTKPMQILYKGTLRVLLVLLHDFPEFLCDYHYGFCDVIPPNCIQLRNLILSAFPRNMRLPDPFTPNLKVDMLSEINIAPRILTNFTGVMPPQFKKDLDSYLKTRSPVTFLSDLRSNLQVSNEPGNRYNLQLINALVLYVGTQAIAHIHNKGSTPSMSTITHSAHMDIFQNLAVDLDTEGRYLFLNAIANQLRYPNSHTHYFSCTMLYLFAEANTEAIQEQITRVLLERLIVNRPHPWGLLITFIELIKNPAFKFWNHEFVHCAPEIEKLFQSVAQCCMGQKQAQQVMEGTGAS

What was measured:
Assay in all cases: log2 fold change, soluble protein after heating vs DMSO (PISA); higher = thermal stabilisation; K562 cells, 10 uM, 30 min; active = over 0.2 and 3.5 SD of the protein, either way, in both replicates (recomputed)
erlotinib = compound: C#Cc1cccc(Nc2ncnc3cc(OCCOC)c(OCCOC)cc23)c1 [erlotinib]
Procedure, shortened: (§1)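 Soluble protein was defined as the supernatant after 21,000xg for 90 min. It came from K562 cells at 2×10^6 cells/mL given 10 μM compound for 30 min, heated in aliquots for 3 min across 48°C-58°C, pooled, and extracted in PBS with 0.5% NP-40 at 4°C, and was quantified by TMTpro 16plex LC-MS/MS with equalised channel sums. Thermal stability against control samples, from duplicates, is reported as log2 fold change.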

[1] = compound: C/C(=N\NC(=O)C1=CC(=CC=C1)S(=O)(=O)N2CCOCC2)/C3=C(C=CC(=C3)Cl)O
Procedure, shortened: as §1

[2] = compound: C1=CC(=C(C=C1Cl)C2=NC3=NC=CN=C3C(=N2)NC4=CC=NC=C4)F
Procedure, shortened: as §1

[3] = compound: C1=CC(=CC=C1C2=NC3=C(N2)C=C(C=C3)C(=O)N)OC4=CC=C(C=C4)Cl
Procedure, shortened: as §1

[4] = compound: C1=CC2=C(C=CC(=C2)/C=C\3/C(=O)NC(=NCC4=CC=CS4)S3)N=C1
Procedure, shortened: as §1

[5] = compound: C1=CC2=NC=CN=C2C=C1/C=C/3\C(=O)NC(=O)S3
Procedure, shortened: as §1

[6] = compound: C1=CC=C(C=C1)C2=NC(=C(N2)C3=CC=NC=C3)C4=CC(=C(C=C4)Cl)O
Procedure, shortened: as §1

[7] = compound: C1=CC=C2C(=C1)C3=NNC4=CC=CC(=C43)C2=O
Procedure, shortened: as §1

[8] = compound: C1CCN(C1)C(=O)NC2=CC=CC(=C2)NC3=NC=C(C(=N3)NCCC4=CN=CN4)Br
Procedure, shortened: as §1

[9] = compound: C1CN(CCC1(CC2=CC=C(C=C2)Cl)N)C3=NC=NC4=C3C=CN4
Procedure, shortened: as §1

IRAK-1-4 Inhibitor I = compound: C1COCCN1CCN2C3=CC=CC=C3N=C2NC(=O)C4=CC(=CC=C4)[N+](=O)[O-] [IRAK-1-4 Inhibitor I]
Procedure, shortened: as §1

[10] = compound: CC(=O)c1cnc2ccc(-c3cc(Cl)c(O)c(Cl)c3)nc2c1N[C@H]1CC[C@H](CN(C)C)CC1
Procedure, shortened: as §1

ralimetinib = compound: CC(C)(C)Cn1c(N)nc2ccc(-c3[nH]c(C(C)(C)C)nc3-c3ccc(F)cc3)nc21 [ralimetinib]
Procedure, shortened: as §1

[11] = compound: CC(C)(O)CC(=O)NCCn1ccc2ncnc(Nc3ccc(Oc4cccc(C(F)(F)F)c4)c(Cl)c3)c21
Procedure, shortened: as §1

[12] = compound: CC(C)C1=C2N=C(C=C(N2N=C1)NCC3=CC=CC=C3)NCCCCCCN
Procedure, shortened: as §1

[13] = compound: CC(C)C[C@@H](C=O)NC(=O)[C@H](CC(C)C)NC(=O)[C@H](CC(C)C)NC(=O)OCc1ccccc1
Procedure, shortened: as §1

pinometostat = compound: CC(C)N(C[C@H]1O[C@@H](n2cnc3c(N)ncnc32)[C@H](O)[C@@H]1O)[C@H]1C[C@@H](CCc2nc3cc(C(C)(C)C)ccc3[nH]2)C1 [pinometostat]
Procedure, shortened: as §1

[14] = compound: CC1=C(C(CC(=O)N1)C2=CC=C(C=C2)C(F)(F)F)C(=O)NC3=C(C=C4C(=C3)C=NN4)F
Procedure, shortened: as §1

[15] = compound: CC1=C(C2=C(C=C1)C(=O)C3=CC=CC=C3N2CCCN)C
Procedure, shortened: as §1

ibrutinib = compound: C=CC(=O)N1CCC[C@@H](n2nc(-c3ccc(Oc4ccccc4)cc3)c3c(N)ncnc32)C1 [ibrutinib]
Procedure, shortened: as §1

Measured: log2 fold change

CLIP4 (UniProt Q8N3C7)
inactive: erlotinib 0.04 | [1] -0.038 | [2] 0.049 | [3] -0.009 | [4] -0.031 | [5] 0.04 | [6] -0.015 | [7] 0.002 | [8] -0.004 | [9] -0.009 | IRAK-1-4 Inhibitor I 0.096 | [10] -0.077 | ralimetinib -0.04 | [11] 0.079 | [12] -0.045 | [13] 0.028 | pinometostat -0.061 | [14] -0.013 | [15] 0.094

CLGN (UniProt O14967)
inactive: erlotinib -0.021 | [1] -0.042 | [2] -0.028 | [3] 0.084 | [4] -0.183 | [5] 0.044 | [6] -0.049 | [7] -0.04 | [8] -0.012 | [9] -0.068 | IRAK-1-4 Inhibitor I -0.058 | [10] -0.023 | ralimetinib -0.08 | [11] -0.016 | [12] 0.02 | [13] 0.02 | pinometostat 0.041 | [14] 0.085 | [15] -0.16

CLPP (UniProt Q16740)
inactive: erlotinib -0.025 | [1] 0.013 | [2] -0.069 | [3] 0.037 | [4] 0.042 | [5] 0.003 | [6] 0.023 | [7] 0.035 | [8] -0.028 | [9] 0.022 | IRAK-1-4 Inhibitor I -0.023 | [10] 0.022 | ralimetinib -0.012 | [11] 0.017 | [12] 0.097 | [13] -0.008 | pinometostat -0.094 | [15] 0.079

COIL (UniProt P38432)
inactive: erlotinib -0.109 | [1] -0.021 | [2] 0.048 | [3] 0.134 | [4] 0.157 | [5] 0.071 | [6] -0.161 | [7] -0.05 | [8] 0.084 | [9] -0.263 | ibrutinib -0.06 | [10] -0.111 | ralimetinib -0.226 | [11] 0 | [12] -0.114 | [13] 0.201 | [14] -0.04 | [15] -0.041

CLTB (UniProt P09497)
inactive: erlotinib 0.106 | [1] -0.042 | [2] 0.038 | [3] -0.05 | [4] -0.02 | [5] 0.039 | [6] 0.069 | [7] 0.028 | [8] 0.008 | [9] 0.023 | IRAK-1-4 Inhibitor I 0.053 | [10] 0.089 | ralimetinib 0.061 | [11] -0.021 | [12] 0.024 | [13] -0.067 | pinometostat -0.07 | [15] -0.007

CLDND1 (UniProt Q9NY35)
inactive: erlotinib 0.028 | [1] 0.027 | [2] -0.114 | [3] -0.018 | [4] -0.045 | [5] 0.081 | [6] -0.022 | [7] 0.024 | [8] -0.159 | [9] 0.036 | IRAK-1-4 Inhibitor I -0.034 | [10] -0.031 | ralimetinib 0.03 | [11] -0.025 | [12] 0.006 | [13] 0.061 | pinometostat 0.106 | [14] 0 | [15] 0.024

COL18A1 (UniProt P39060)
inactive: erlotinib -0.156 | [1] 0.01 | [2] -0.131 | [3] 0.129 | [4] -0.189 | [5] 0.039 | [6] -0.075 | [7] -0.021 | [8] -0.181 | [9] 0.017 | ibrutinib 0.076 | [10] -0.036 | ralimetinib -0.216 | [11] 0.017 | [12] -0.053 | [13] 0.197 | [14] 0.036 | [15] -0.007

CLASP2 isoform 3 (UniProt O75122)
active: [10] -0.297
inactive: erlotinib 0.014 | [1] 0.136 | [2] 0.066 | [3] 0.032 | [4] 0.081 | [5] -0.013 | [6] -0.01 | [7] 0.006 | [8] -0.063 | [9] 0.041 | IRAK-1-4 Inhibitor I -0.047 | ralimetinib 0.009 | [11] -0.056 | [12] -0.036 | [13] 0.046 | pinometostat 0.018 | [15] 0.046

2 consecutive entries from above, quoted:
COL18A1 (UniProt P39060)
inactive: erlotinib -0.156 | [1] 0.01 | [2] -0.131 | [3] 0.129 | [4] -0.189 | [5] 0.039 | [6] -0.075 | [7] -0.021 | [8] -0.181 | [9] 0.017 | ibrutinib 0.076 | [10] -0.036 | ralimetinib -0.216 | [11] 0.017 | [12] -0.053 | [13] 0.197 | [14] 0.036 | [15] -0.007

CLASP2 isoform 3 (UniProt O75122)
active: [10] -0.297
inactive: erlotinib 0.014 | [1] 0.136 | [2] 0.066 | [3] 0.032 | [4] 0.081 | [5] -0.013 | [6] -0.01 | [7] 0.006 | [8] -0.063 | [9] 0.041 | IRAK-1-4 Inhibitor I -0.047 | ralimetinib 0.009 | [11] -0.056 | [12] -0.036 | [13] 0.046 | pinometostat 0.018 | [15] 0.046

Next results.

CLPX (UniProt O76031)
inactive: erlotinib -0.062 | [1] 0.056 | [2] 0.01 | [3] 0.004 | [4] -0.009 | [5] 0.036 | [6] -0.008 | [7] -0.034 | [8] -0.03 | [9] -0.003 | IRAK-1-4 Inhibitor I 0.002 | [10] 0.006 | ralimetinib -0.03 | [11] -0.02 | [12] 0.048 | [13] -0.055 | pinometostat -0.026 | [15] 0.012

CLINT1 isoform 3 (UniProt Q14677)
inactive: erlotinib 0.016 | [1] -0.134 | [2] -0.097 | [3] -0.036 | [4] 0.026 | [5] 0.05 | [6] -0.03 | [7] -0.042 | [8] -0.044 | [9] 0.042 | [10] 0.135 | ralimetinib 0.139 | [11] 0.102 | [12] 0.103 | [13] 0.04 | pinometostat 0.047 | [15] 0.022

CLPTM1 (UniProt O96005)
inactive: erlotinib -0.033 | [1] 0.076 | [2] -0.002 | [3] 0.004 | [4] -0.036 | [5] 0.045 | [6] -0.015 | [7] 0.016 | [8] 0.016 | [9] 0.005 | IRAK-1-4 Inhibitor I 0.001 | [10] 0.054 | ralimetinib -0.034 | [11] 0.022 | [12] -0.163 | [13] 0.041 | pinometostat 0.042 | [14] 0.038 | [15] 0.025

CLIC1 (UniProt O00299)
inactive: erlotinib -0.018 | [1] 0.03 | [2] 0.038 | [3] -0.025 | [4] -0.022 | [5] -0.022 | [6] 0.02 | [7] 0.009 | [8] 0.017 | [9] 0.047 | IRAK-1-4 Inhibitor I 0.044 | [10] -0.008 | ralimetinib -0.047 | [11] 0.003 | [12] 0.016 | [13] -0.01 | pinometostat -0.032 | [14] 0.056 | [15] -0.037

CLTA isoform 2 (UniProt P09496)
inactive: erlotinib 0.03 | [1] -0.093 | [2] -0.056 | [3] -0.008 | [4] -0.058 | [5] 0.063 | [6] -0.017 | [7] -0.015 | [8] 0.081 | [9] 0.004 | IRAK-1-4 Inhibitor I 0.045 | [10] 0.116 | ralimetinib 0.027 | [11] 0 | [12] 0.055 | [13] 0.087 | pinometostat -0.005 | [14] 0.039 | [15] -0.097

CLPB isoform 2 (UniProt Q9H078)
inactive: erlotinib 0.009 | [1] 0.018 | [2] -0.013 | [3] -0.003 | [4] 0.045 | [5] 0.003 | [6] 0.105 | [7] 0.004 | [8] -0.023 | [9] -0.004 | IRAK-1-4 Inhibitor I 0.011 | [10] -0.059 | ralimetinib 0.04 | [11] -0.074 | [12] -0.116 | [13] 0.021 | pinometostat 0.012 | [14] -0.018 | [15] 0.076

CLCC1 (UniProt Q96S66)
inactive: erlotinib 0.02 | [1] -0.003 | [2] 0 | [3] -0.003 | [4] 0.026 | [5] 0.059 | [6] -0.015 | [7] -0.045 | [8] 0.027 | [9] 0.017 | IRAK-1-4 Inhibitor I 0.016 | [10] -0.005 | ralimetinib -0.064 | [11] 0.002 | [12] 0.003 | [13] -0.041 | pinometostat -0.032 | [14] -0.016 | [15] 0.043

CNOT1 (UniProt A5YKK6)
inactive: erlotinib 0.013 | [1] 0.102 | [2] -0.003 | [3] -0.007 | [4] 0.035 | [5] 0.001 | [6] 0.014 | [7] -0.004 | [8] -0.009 | [9] -0.008 | IRAK-1-4 Inhibitor I -0.07 | ibrutinib -0.024 | [10] -0.029 | ralimetinib 0.028 | [11] -0.063 | [12] -0.101 | [13] 0.039 | pinometostat 0.027 | [15] 0.063

CLCN7 (UniProt P51798)
inactive: erlotinib 0.079 | [1] 0.047 | [2] 0.075 | [3] -0.008 | [4] 0.023 | [5] 0.063 | [6] 0.076 | [7] -0.05 | [8] 0.016 | [9] 0.001 | IRAK-1-4 Inhibitor I -0.01 | [10] -0.005 | ralimetinib -0.055 | [11] -0.08 | [13] 0 | pinometostat -0.051 | [15] -0.092
active: [12] -0.91
